Measurements reported in PubChem BioAssay AID1259405 (NCATS, 2018).

- Assay: 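Silenced genes that increase secreted GFP made by CHO cells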 (primary screen)
- Cell system: Chinese hamster CHO-K1 ovary cells with stable secreted eGFP expression
- Reagents: single siRNA against mouse genes, 0.8 pmol siRNA per well (2 µl of 400 nM stock)
- Duration: 3 days
- Read-out: 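Per-well intracellular GFP measured by laser scanning cytometry, plus viability from ATP luminescence, each relative to plate median of non-targeting control wells, in %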
- Direction: GFP, % of control: higher = more GFP per well, higher productivity; viability (ATP), % of control: higher = more viable cells (more ATP)
- Hit rule: 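Called active when intracellular GFP, relative to negative control, is at or above 120%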
The deposit covers about 50,000 reagents; below is a part drawn at random. About 4,000 of them (8%) were called active. 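Mouse siRNA library applied to hamster cells; one well for each siRNA.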 Reagents against one gene are numbered here. Reagent sequences are not shown.

Bcdin3d #1 → GFP, % of control = 99.4; viability (ATP), % of control = 82.6; Outcome = inactive
Bcdin3d #2 → GFP, % of control = 69.3; viability (ATP), % of control = 50.5; Outcome = inactive
Bcdin3d #3 → GFP, % of control = 67.1; viability (ATP), % of control = 44.3; Outcome = inactive
Pip5k1c → GFP, % of control = 53.8; viability (ATP), % of control = 44.2; Outcome = inactive
AI504432 #1 → GFP, % of control = 70.4; viability (ATP), % of control = 61.4; Outcome = inactive
AI504432 #2 → GFP, % of control = 78.6; viability (ATP), % of control = 85.2; Outcome = inactive
AI504432 #3 → GFP, % of control = 29.5; viability (ATP), % of control = 14.6; Outcome = inactive
Adsl #1 → GFP, % of control = 101; viability (ATP), % of control = 98.2; Outcome = inactive
Adsl #2 → GFP, % of control = 82.3; viability (ATP), % of control = 89.4; Outcome = inactive
Adsl #3 → GFP, % of control = 74.9; viability (ATP), % of control = 46.1; Outcome = inactive
Ogfod3 #1 → GFP, % of control = 64.2; viability (ATP), % of control = 59.3; Outcome = inactive
Ogfod3 #2 → GFP, % of control = 78.4; viability (ATP), % of control = 95.2; Outcome = inactive
Ogfod3 #3 → GFP, % of control = 72; viability (ATP), % of control = 98.6; Outcome = inactive
4930474M22Rik #1 → GFP, % of control = 124; viability (ATP), % of control = 101; Outcome = active
4930474M22Rik #2 → GFP, % of control = 152; viability (ATP), % of control = 87.3; Outcome = active
4930474M22Rik #3 → GFP, % of control = 98.9; viability (ATP), % of control = 106; Outcome = inactive
Kif20a #1 → GFP, % of control = 38.6; viability (ATP), % of control = 60.5; Outcome = inactive
Kif20a #2 → GFP, % of control = 94.5; viability (ATP), % of control = 86.9; Outcome = inactive
Or4f47 #1 → GFP, % of control = 71.3; viability (ATP), % of control = 81.3; Outcome = inactive
Or4f47 #2 → GFP, % of control = 66; viability (ATP), % of control = 60; Outcome = inactive
Or4f47 #3 → GFP, % of control = 49; viability (ATP), % of control = 96; Outcome = inactive
Or5p68 #1 → GFP, % of control = 104; viability (ATP), % of control = 96.8; Outcome = inactive
Or5p68 #2 → GFP, % of control = 82.8; viability (ATP), % of control = 57.4; Outcome = inactive
Or5p68 #3 → GFP, % of control = 65.8; viability (ATP), % of control = 34.8; Outcome = inactive
Eeig1 #1 → GFP, % of control = 68; viability (ATP), % of control = 60; Outcome = inactive
Eeig1 #2 → GFP, % of control = 62.6; viability (ATP), % of control = 62.5; Outcome = inactive
Eeig1 #3 → GFP, % of control = 141; viability (ATP), % of control = 122; Outcome = active
Rfxank #1 → GFP, % of control = 92.2; viability (ATP), % of control = 84; Outcome = inactive
Rfxank #2 → GFP, % of control = 120; viability (ATP), % of control = 93.9; Outcome = active
Rfxank #3 → GFP, % of control = 84.8; viability (ATP), % of control = 94.9; Outcome = inactive
Or51f1e #1 → GFP, % of control = 54; viability (ATP), % of control = 31.7; Outcome = inactive
Or51f1e #2 → GFP, % of control = 123; viability (ATP), % of control = 96.9; Outcome = active
Or51f1e #3 → GFP, % of control = 88.7; viability (ATP), % of control = 69; Outcome = inactive
Nfatc1 #1 → GFP, % of control = 64.7; viability (ATP), % of control = 82.2; Outcome = inactive
Nfatc1 #2 → GFP, % of control = 54.3; viability (ATP), % of control = 74.2; Outcome = inactive
Nfatc1 #3 → GFP, % of control = 74.6; viability (ATP), % of control = 93.1; Outcome = inactive
Ncald #1 → GFP, % of control = 80.8; viability (ATP), % of control = 86.2; Outcome = inactive
Ncald #2 → GFP, % of control = 61.8; viability (ATP), % of control = 60.2; Outcome = inactive
Nkx1-2 #1 → GFP, % of control = 32.1; viability (ATP), % of control = 36.1; Outcome = inactive
Nkx1-2 #2 → GFP, % of control = 64.9; viability (ATP), % of control = 78.2; Outcome = inactive
Nkx1-2 #3 → GFP, % of control = 54; viability (ATP), % of control = 36.1; Outcome = inactive

2 successive records from above, quoted:
Eeig1 #3 → GFP, % of control = 141; viability (ATP), % of control = 122; Outcome = active
Rfxank #1 → GFP, % of control = 92.2; viability (ATP), % of control = 84; Outcome = inactive
